Test: Fluorescing fragrances: UV indication and boosting of UV indicator fluorescence
Assay type: physicochemical
Conditions: for UV Booster: fragrance boosts fluorescence of UV indicators (s-5 white grains); for UV Indicator: fragrance ingredient itself provides UV indication

O=C(c1ccccc1)c1ccccc1 [Benzophenone]
UV Booster: Yes
UV Indicator: Yes

O=c1ccc2ccccc2o1 [Coumarin]
UV Booster: Yes
UV Indicator: Yes

Cc1occc(=O)c1O [Veltol (Maltol), Maltol]
UV Booster: Yes
UV Indicator: Yes

CC1(C)CCC[C@]2(C)[C@H]3CCO[C@]3(C)CC[C@@H]12 [Ambrox]
UV Booster: Yes
UV Indicator: Yes

COC(=O)c1c(C)cc(O)c(C)c1O [Veramoss]
UV Booster: Yes
UV Indicator: Yes

Reference: patent publication US20180362893A1, “COMPOSITIONS COMPRISING AN ULTRAVIOLET INDICATOR” (Chemia Corporation, priority 2015, published 2018)
